No constants are given. Whether binding was seen depends on the method and setting. Binding seen in cells or lysates may run through a third protein. Binding can be weak; no strength is given. Sequences can lack the tags named with a protein.

For the assay, the target named is T1, C-terminal GFP-tagged BBS1 (human) (UniProt Q8NFJ9).
T1 sequence: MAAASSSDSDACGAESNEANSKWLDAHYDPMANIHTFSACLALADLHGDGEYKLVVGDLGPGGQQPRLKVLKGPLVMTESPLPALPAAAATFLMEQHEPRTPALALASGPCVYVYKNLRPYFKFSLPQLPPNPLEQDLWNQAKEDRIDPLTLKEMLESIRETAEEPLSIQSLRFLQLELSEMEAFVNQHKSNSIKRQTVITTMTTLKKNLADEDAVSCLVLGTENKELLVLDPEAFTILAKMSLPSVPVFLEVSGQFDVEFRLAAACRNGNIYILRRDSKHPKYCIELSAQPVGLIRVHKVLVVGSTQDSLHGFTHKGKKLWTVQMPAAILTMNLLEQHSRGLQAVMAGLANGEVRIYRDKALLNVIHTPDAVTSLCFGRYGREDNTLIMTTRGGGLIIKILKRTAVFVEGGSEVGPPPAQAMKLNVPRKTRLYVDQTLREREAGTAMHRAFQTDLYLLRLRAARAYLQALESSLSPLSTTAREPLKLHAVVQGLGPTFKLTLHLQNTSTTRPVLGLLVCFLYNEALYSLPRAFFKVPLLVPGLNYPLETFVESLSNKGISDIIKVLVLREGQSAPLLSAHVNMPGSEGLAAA
The assay is described as follows: co-IP.

As to “dynein (intermediate chain) (human (endogenous in Jurkat))”, the binding entry is given as “binds”.

The values above are taken from article doi:10.1101/2020.11.30.403980.
